According to the supplement of paper PMC6078165:
The reference is the same well before dosing, and untreated signal decays as well.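 Labels refer to human fibroblasts, largely primary: uterine (C12385, HUF), lung (H6013), bone (Hs27A), adrenal (HADF), skin (WS1), plus mammary HMF and breast cancer-associated Hs343T. Cancer lines are basal-like or mesenchymal-like triple-negative breast cancer. The paper counts as hits responses shifting over 3x the replicate standard deviation. The tissue of the other fibroblasts is not given here.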

Test system: HCC1143
Assay: relative JC-1 red fluorescence (viability) vs pre-drug, coculture with fibroblast (fraction); higher = more viable cancer cells
Protocol: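 JC-1 labelled TNBC cells cocultured 1:1 (1,500 cells each) with CellTrace Violet stained primary or stromal fibroblasts in 384-well plates in FluoroBrite medium, treated with one of 42 anticancer drugs at 0.1, 1, 10 or 100 uM. JC-1 red fluorescence (mitochondrial integrity in cancer cells only) was read by plate reader every 8 h for 72 h. Values are normalised to each well's pre-drug value. The stock of one drug was tenfold lower, so its dose labels may be too high.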

CC(=O)O[C@H]1C(=O)[C@@]2(C)[C@H]([C@H](OC(=O)c3ccccc3)[C@]3(O)C[C@H](OC(=O)[C@H](O)[C@@H](NC(=O)c4ccccc4)c4ccccc4)C(C)=C1C3(C)C)[C@]1(OC(C)=O)CO[C@@H]1C[C@@H]2O [Paclitaxel]
relative JC-1 red fluorescence
Details | 8 h | 16 h | 24 h | 32 h | 40 h | 48 h | 56 h | 64 h | 72 h
1 µM, coculture fibroblast: C12385 | – | – | – | – | – | 0.459 | 0.438 | 0.428 | 0.437
1 µM, coculture fibroblast: H6013 | – | – | – | – | – | 0.538 | 0.513 | 0.504 | 0.443
1 µM, coculture fibroblast: H6019 | – | – | – | – | – | 0.5187 | 0.48 | 0.462 | 0.454
1 µM, coculture fibroblast: H6076 | – | – | – | – | – | 0.614 | 0.586 | 0.571 | 0.597
1 µM, coculture fibroblast: H6231 | – | – | – | – | – | 0.493 | 0.446 | 0.409 | 0.403
1 µM, coculture fibroblast: HADF | – | – | – | – | – | 0.443 | 0.412 | 0.401 | 0.348
1 µM, coculture fibroblast: HCFa | – | – | – | – | – | 0.485 | 0.436 | 0.407 | 0.339
1 µM, coculture fibroblast: HCPF | – | – | – | – | – | 0.529 | 0.4853 | 0.4542 | 0.449
1 µM, coculture fibroblast: HHSteC | – | – | – | – | 0.58 | 0.543 | 0.489 | 0.459 | 0.388
1 µM, coculture fibroblast: HMF | – | – | – | – | 0.539 | 0.493 | 0.445 | 0.422 | 0.431
1 µM, coculture fibroblast: HPFa | – | – | – | – | 0.548 | 0.516 | 0.461 | 0.436 | 0.416
1 µM, coculture fibroblast: HUF | – | – | – | – | 0.554 | 0.535 | 0.486 | 0.472 | 0.452
1 µM, coculture fibroblast: Hs5 | – | – | – | – | 0.596 | 0.576 | 0.543 | 0.516 | 0.531
1 µM, coculture fibroblast: Hs27A | – | – | – | – | 0.716 | 0.767 | 0.7251 | 0.729 | 0.624
1 µM, coculture fibroblast: Hs343T | – | – | – | – | 0.612 | 0.575 | 0.512 | 0.494 | 0.498
1 µM, coculture fibroblast: WS1 | – | – | – | – | 0.403 | 0.354 | 0.309 | 0.283 | 0.275
10 µM, coculture fibroblast: C12385 | 0.896 | 0.844 | 0.799 | 0.707 | 0.643 | 0.591 | 0.551 | 0.52 | 0.509
10 µM, coculture fibroblast: H6013 | 0.818 | 0.731 | 0.702 | 0.681 | 0.603 | 0.596 | 0.57 | 0.565 | 0.516
10 µM, coculture fibroblast: H6019 | 0.8156 | 0.724 | 0.678 | 0.614 | 0.59 | 0.586 | 0.552 | 0.541 | 0.525
10 µM, coculture fibroblast: H6076 | 0.886 | 0.79 | 0.776 | 0.879 | 0.866 | 0.867 | 0.845 | 0.815 | 0.834
10 µM, coculture fibroblast: H6231 | 0.8268 | 0.882 | 0.769 | 0.596 | 0.593 | 0.532 | 0.474 | 0.435 | 0.407
10 µM, coculture fibroblast: HADF | 0.762 | 0.679 | 0.60833 | 0.5886 | 0.4868 | 0.478 | 0.444 | 0.418 | 0.359
10 µM, coculture fibroblast: HCFa | 0.852 | 0.729 | 0.68 | 0.635 | 0.5386 | 0.505 | 0.448 | 0.422 | 0.372
10 µM, coculture fibroblast: HCPF | 0.8349 | 0.8923 | 0.7997 | 0.641 | 0.666 | 0.61 | 0.556 | 0.525 | 0.507
10 µM, coculture fibroblast: HHSteC | 0.8566 | 0.761 | 0.721 | 0.683 | 0.588 | 0.563 | 0.511 | 0.491 | 0.418
10 µM, coculture fibroblast: HMF | 0.831 | 0.887 | 0.765 | 0.638 | 0.593 | 0.529 | 0.46427 | 0.4275 | 0.401
10 µM, coculture fibroblast: HPFa | 0.904 | 0.823 | 0.724 | 0.625 | 0.523 | 0.486 | 0.423 | 0.388 | 0.366
10 µM, coculture fibroblast: HUF | 0.904 | 0.826 | 0.731 | 0.636 | 0.562 | 0.513 | 0.483 | 0.466 | 0.458
10 µM, coculture fibroblast: Hs5 | 0.8961 | 0.862 | 0.84 | 0.83 | 0.727 | 0.677 | 0.649 | 0.618 | 0.633
10 µM, coculture fibroblast: Hs27A | 0.794 | 0.706 | 0.678 | 0.68 | 0.577 | 0.575 | 0.54 | 0.524 | 0.452
10 µM, coculture fibroblast: Hs343T | 0.844 | 0.918 | 0.816 | 0.66 | 0.608 | 0.524 | 0.448 | 0.398 | 0.364
10 µM, coculture fibroblast: WS1 | 0.835 | 0.724 | 0.654 | 0.548 | 0.47 | 0.434 | 0.397 | 0.37033 | 0.364
